These are yes or no findings as the source states them, for the method shown. Binding seen in cells or lysates may run through a third protein. Some results given as binding are weak or reduced against the parent protein; the word gives no strength.
Columns and labels:
[1] = target: YFPn-GOLPH3 (Golgi phosphoprotein 3 fused to the YFP N terminal fragment) (UniProt Q9H4A6); experiment: split reporter; genome-wide BiFC screen in living HTC75 cells: YFPn-GOLPH3 stable line infected with the pooled YFPc-tagged human ORFeome library (about 18,000 ORFs, MOI about 0.5); YFP positive cells sorted by flow cytometry for four rounds; ORFs amplified by PCR and sequenced
[2] = target: YFPn-GOLPH3 (Golgi phosphoprotein 3 fused to the YFP N terminal fragment) (UniProt Q9H4A6); experiment: split reporter; pair-wise BiFC: proteins tagged with YFPn and YFPc stably co-expressed in HTC75 cells, YFP fluorescence by flow cytometry
[3] = target: Flag-tagged STIP1 (human) (UniProt P31948); experiment: co-IP; Flag-tagged construct transiently transfected into HEK293T cells, lysed after 48 h in NETN buffer (100 mM NaCl, 0.5% NP-40), precipitated with anti-Flag affinity agarose beads, washed four times, blotted with anti-GOLPH3

By UniProt entry, the sequences of proteins in these tests, tags left out.
UniProt Q9H4A6: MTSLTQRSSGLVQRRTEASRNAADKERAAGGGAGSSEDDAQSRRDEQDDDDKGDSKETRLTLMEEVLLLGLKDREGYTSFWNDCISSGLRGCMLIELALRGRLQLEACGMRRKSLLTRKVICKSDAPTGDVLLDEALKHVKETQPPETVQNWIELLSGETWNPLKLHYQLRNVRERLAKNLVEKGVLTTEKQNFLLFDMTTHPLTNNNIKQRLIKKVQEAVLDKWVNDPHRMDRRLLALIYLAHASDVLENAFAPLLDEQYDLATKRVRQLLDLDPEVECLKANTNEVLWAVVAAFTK

Substance | binding [1] | binding [2] | binding [3]
YFPc-tagged stress-inducible protein-1 (STIP1) (from UniProt P31948 1-543) | binds | binds | 
endogenous GOLPH3 (from UniProt Q9H4A6 1-298) |  |  | binds

Source: PMC7566044
